Results are given in words; binding and its absence hold for the method and conditions named. Binding seen in cells or lysates may run through a third protein. Some binding calls cover weakened binding; strength is not graded here.
How the values were obtained:
[1] = molecular target: endogenous USP10 (ubiquitin specific peptidase 10) (human (endogenous in HEK293T)) (UniProt Q14694); test: co-IP; endogenous proteins, HEK293T lysate; immunoprecipitation with anti-USP10 antibody (normal rabbit IgG as control); blot with anti-IGF2BP3
[2] = molecular target: USP10-Flag (ubiquitin specific peptidase 10) (UniProt Q14694); test: co-IP; HEK293T cells co-transfected, 24 h; RIPA lysis buffer with protease inhibitors; immunoprecipitation with mouse anti-Flag mAb and protein-A Sepharose, six PBST washes; blot with anti-GFP

Protein sequences, listed by entry. Tags and fused reporters are not part of them.
UniProt Q14694: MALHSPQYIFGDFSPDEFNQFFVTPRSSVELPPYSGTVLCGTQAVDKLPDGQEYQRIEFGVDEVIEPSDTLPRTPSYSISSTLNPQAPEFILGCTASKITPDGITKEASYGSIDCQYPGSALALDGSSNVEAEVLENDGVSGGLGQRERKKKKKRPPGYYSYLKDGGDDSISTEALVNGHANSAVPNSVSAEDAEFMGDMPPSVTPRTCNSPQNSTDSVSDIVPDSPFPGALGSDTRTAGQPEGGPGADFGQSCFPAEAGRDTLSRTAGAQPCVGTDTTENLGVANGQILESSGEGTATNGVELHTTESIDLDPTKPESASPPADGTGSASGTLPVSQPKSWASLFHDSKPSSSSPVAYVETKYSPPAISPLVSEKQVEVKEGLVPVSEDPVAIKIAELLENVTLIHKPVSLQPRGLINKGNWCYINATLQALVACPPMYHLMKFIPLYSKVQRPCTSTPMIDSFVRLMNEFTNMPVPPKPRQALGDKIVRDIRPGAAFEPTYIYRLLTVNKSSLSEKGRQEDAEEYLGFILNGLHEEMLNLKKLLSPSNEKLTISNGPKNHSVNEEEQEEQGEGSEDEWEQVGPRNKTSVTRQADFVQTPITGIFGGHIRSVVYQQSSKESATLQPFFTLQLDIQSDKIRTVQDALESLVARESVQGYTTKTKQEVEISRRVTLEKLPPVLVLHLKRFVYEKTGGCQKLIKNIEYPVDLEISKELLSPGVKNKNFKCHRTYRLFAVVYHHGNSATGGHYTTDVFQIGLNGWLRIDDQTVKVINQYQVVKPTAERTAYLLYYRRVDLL
UniProt O00425: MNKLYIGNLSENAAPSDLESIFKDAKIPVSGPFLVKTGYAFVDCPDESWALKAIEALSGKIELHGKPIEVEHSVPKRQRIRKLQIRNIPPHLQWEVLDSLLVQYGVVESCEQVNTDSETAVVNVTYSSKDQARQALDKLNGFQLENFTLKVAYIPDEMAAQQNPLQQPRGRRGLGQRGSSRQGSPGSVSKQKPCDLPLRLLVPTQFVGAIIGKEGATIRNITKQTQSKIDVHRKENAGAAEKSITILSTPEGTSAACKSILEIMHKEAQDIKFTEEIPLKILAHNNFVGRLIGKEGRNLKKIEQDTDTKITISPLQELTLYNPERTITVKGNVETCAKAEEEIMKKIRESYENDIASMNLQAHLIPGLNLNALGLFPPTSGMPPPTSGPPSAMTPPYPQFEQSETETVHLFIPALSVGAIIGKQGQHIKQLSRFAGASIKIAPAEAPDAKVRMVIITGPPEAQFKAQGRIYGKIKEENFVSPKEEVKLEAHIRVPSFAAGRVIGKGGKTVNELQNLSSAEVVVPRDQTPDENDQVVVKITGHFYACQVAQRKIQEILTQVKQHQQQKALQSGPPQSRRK

Row | binding [1] | binding [2] | Substance
1 | binds |  | endogenous IGF2BP3 (from UniProt O00425 1-579)
2 |  | binds | IGF2BP3-GFP (from UniProt O00425 1-579)

— publication PMC5706827
